Data published in PubChem BioAssay AID244 (DTP/NCI, 2004).
The list does not hold the whole screen: it gathers tests that were run many times, whatever their T/C, doses with no T/C, and many T/C values between a quarter and a half above the control. Further doses and runs are listed elsewhere. T/C: endpoint of the treated group in % of that of the vehicle group. Some doses have a count of surviving animals in place of a T/C: the source files T/C as zero there, which appears to mark a toxic dose or a test without result, not a measured value. Some survivor counts are full or nearly so, which does not show that the dose was tolerated: the source hardly ever lists a survival T/C far under the control, and the zero likely stands for such cases as well. Survivors were counted at the toxicity check, usually on the fifth day, unless a day is given; later deaths do not show. Schedules are NCI's codes, read here as Q, the interval in days (D) or hours (H), X, the number of doses. Additions like (4×) say how often a value occurs here. Some structures stand for samples that the source files as different forms (salt, stereo form or complex); doses refer to the form tested. Some entries hold several experiments; the results are listed from low to high. Where survival is the endpoint, the PubChem record calls one and a half times the control and up active, and a quarter to a half above the control has no call in these data; cut-offs in other NCI protocols can differ. *1 amine or outer side, *2 acyl side, *3 side chain or, on linkers, in order; H or OH if unused. Where a SMILES comes first, the peptide text is derived from it. Bridges are numbered along the chain shown (N, C = ends). Roman numbers before positions name the chains, in order. [ ]: non-standard residue; d: D form. Actinocin(9to1) = Cc1c2oc3c(C)ccc(C(=O)[*:1])c3nc-2c(C(=O)[*:2])c(N)c1=O; aThr = C[C@H](O)[C@H](N)C(=O)O; NMeV = CN[C@H](C(=O)O)C(C)C; Sar = CNCC(=O)O

Test system: CD2F1 mice, Lymphoma 8 ip, survival T/C
Experiment: NCI In Vivo Anticancer Drug Screen. Data for tumor model Lymphoma 8 (intraperitoneal) in CD2F1 (CDF1) mice
Settings: higher T/C = longer survival
Description: The antitumor activity of compounds was measured in mice bearing transplantable tumors. Survival or tumor size were measured and the results are expressed as the measurement made in the treated group (T) divided by the measurement made in the vehicle treated control group (C). The tumor model used in this assay is Lymphoma 8 (intraperitoneal) in CD2F1 (CDF1) mice

[1] = T/C endpoint: median survival time, dose: 4.0 mg/kg/injection, schedule: Q01DX009 (ip), vehicle: saline
[2] = T/C endpoint: median survival time, dose: 8.0 mg/kg/injection, schedule: Q01DX009 (ip), vehicle: saline
[3] = T/C endpoint: median survival time, dose: 800.0 mg/kg/injection, schedule: Q01DX005 (ip), vehicle: water

O=NN(CCCl)C(=O)NCCCl
T/C (T/C endpoint: median survival time, dose: 6.25 mg/kg/injection, schedule: Q01DX001 (ip), vehicle: saline): 130 % of control
T/C (T/C endpoint: median survival time, dose: 6.25 mg/kg/injection, schedule: Q01DX005 (ip), vehicle: saline): 137 % of control
survivor count (T/C endpoint: median survival time, dose: 50.0 mg/kg/injection, schedule: Q01DX001 (ip), vehicle: saline): 6 of 6
T/C (T/C endpoint: survival time, mean or median, dose: 12.5 mg/kg/injection, schedule: Q01DX010 (ip), vehicle: saline): 130 % of control
survivor count (T/C endpoint: survival time, mean or median, dose: 25.0 mg/kg/injection, schedule: Q01DX010 (ip), vehicle: saline): 6 of 6
survivor count (T/C endpoint: survival time, mean or median, dose: 50.0 mg/kg/injection, schedule: Q01DX010 (ip), vehicle: saline): 6 of 6

Nc1nc(=S)c2ncn(C3OC(CO)C(O)C3O)c2[nH]1 (configuration not stated)
T/C (T/C endpoint: survival time, mean or median, dose: 2.0 mg/kg/injection, schedule: Q01DX010 (ip), vehicle: saline): 136 % of control

CC/C(=C(/CC)c1ccc(O)cc1)c1ccc(O)cc1
survivor count (T/C endpoint: survival time, mean or median, dose: 12.5 mg/kg/injection, schedule: Q01DX010 (sc), vehicle: steroid suspending solution): 6 of 6

O=C1NC(O)CCN1C1OC(CO)C(O)C1O (configuration not stated)
survivor count (T/C endpoint: median survival time, dose: 10.0 mg/kg/injection, schedule: Q04DX008 (ip), vehicle: saline): 6 of 10
survivor count (T/C endpoint: median survival time, dose: 300.0 mg/kg/injection, schedule: Q04DX008 (ip), vehicle: saline): 6 of 10
survivor count (T/C endpoint: median survival time, dose: 1000.0 mg/kg/injection, schedule: Q04DX008 (ip), vehicle: saline): 6 of 10

CN1C(=O)C=CC1=O
survivor count [1]: 5 of 6
survivor count [2]: 0 of 6 (2×)

N[C@H](C(=O)O)[C@@H]1CC(Cl)=NO1
T/C (T/C endpoint: median survival time, dose: 3.0 mg/kg/injection, schedule: Q01DX009 (ip), vehicle: saline): 133 % of control

CC[C@]1(O)C[C@H]2CN(CCc3c([nH]c4ccccc34)[C@@](C(=O)OC)(c3cc4c(cc3OC)N(C=O)[C@H]3[C@@](O)(C(=O)OC)[C@H](OC(C)=O)[C@]5(CC)C=CCN6CC[C@]43[C@@H]65)C2)C1
T/C (T/C endpoint: median survival time, dose: 0.25 mg/kg/injection, schedule: Q01DX005 (ip), vehicle: saline, evaluated on day 5): 122 % of control
T/C (T/C endpoint: median survival time, dose: 0.25 mg/kg/injection, schedule: Q01DX005 (ip), vehicle: saline, evaluated on day 30): 116 % of control
T/C (T/C endpoint: median survival time, dose: 0.25 mg/kg/injection, schedule: Q01DX005 (ip), vehicle: saline, evaluated on day 60): 115 and 116 % of control
T/C (T/C endpoint: median survival time, dose: 0.5 mg/kg/injection, schedule: Q01DX005 (ip), vehicle: saline): 125 % of control
survivor count (T/C endpoint: median survival time, dose: 1.0 mg/kg/injection, schedule: Q01DX005 (ip), vehicle: saline): 6 of 6

O=C1C=CC(=O)N1
survivor count [1]: 6 of 6 (2×)
survivor count [2]: 0 of 6 and 1 of 6

CCSCCC(N)C(=O)O (configuration not stated)
survivor count (T/C endpoint: median survival time, dose: 150.0 mg/kg/injection, schedule: Q01DX005 (ip), vehicle: saline): 10 of 10

NC(CC(=O)O)C(=O)O (configuration not stated)
survivor count (T/C endpoint: median survival time, dose: 400.0 mg/kg/injection, schedule: Q01DX005 (ip), vehicle: water): 5 of 10
survivor count [3]: 0 of 10

Cc1c2oc3c(C)ccc(C(=O)N[C@@H]4C(=O)N[C@H](C(C)C)C(=O)N5CCC[C@H]5C(=O)N(C)CC(=O)N(C)[C@@H](C(C)C)C(=O)O[C@H]4C)c3nc-2c(C(=O)N[C@@H]2C(=O)N[C@H](C(C)C)C(=O)N3CCC[C@H]3C(=O)N(C)CC(=O)N(C)[C@@H](C(C)C)C(=O)O[C@H]2C)c(N)c1=O (I: [aThr][dV]P[Sar][NMeV] / II: [aThr][dV]P[Sar][NMeV]; ester I:1-I:C, II:1-II:C; linker I:N-II:N via Actinocin(9to1))
T/C (T/C endpoint: median survival time, dose: 0.1 mg/kg/injection, schedule: Q01DX002 (ip), vehicle: saline): 126 % of control

NC(C/[N+]([O-])=N/O)C(=O)O (configuration not stated)
T/C (T/C endpoint: median survival time, dose: 8.78 mg/kg/injection, schedule: Q01DX010 (ip), vehicle: alkali diluted with saline): 144 % of control
T/C (T/C endpoint: median survival time, dose: 50.0 mg/kg/injection, schedule: Q01DX009 (ip), vehicle: saline + alcohol): 132 % of control
survivor count (T/C endpoint: median survival time, dose: 200.0 mg/kg/injection, schedule: Q01DX009 (ip), vehicle: other): 5 of 6
survivor count (T/C endpoint: median survival time, dose: 200.0 mg/kg/injection, schedule: Q01DX009 (ip), vehicle: saline + alcohol): 6 of 6
survivor count (T/C endpoint: median survival time, dose: 200.0 mg/kg/injection, schedule: Q01DX009 (ip), vehicle: water): 5 of 6
survivor count (T/C endpoint: median survival time, dose: 400.0 mg/kg/injection, schedule: Q01DX009 (ip), vehicle: other): 3 of 6
survivor count (T/C endpoint: median survival time, dose: 400.0 mg/kg/injection, schedule: Q01DX009 (ip), vehicle: saline + alcohol): 4 of 6
survivor count (T/C endpoint: median survival time, dose: 400.0 mg/kg/injection, schedule: Q01DX009 (ip), vehicle: water): 6 of 6

O=c1[nH]cc(F)c(=O)[nH]1
T/C (T/C endpoint: median survival time, dose: 60.0 mg/kg/injection, schedule: Q04DX003 (ip), vehicle: saline): 138 % of control

N=[N+]=CC(=O)OCC(N)C(=O)O (configuration not stated)
T/C (T/C endpoint: median survival time, dose: 1.0 mg/kg/injection, schedule: Q14DX016 (ip), vehicle: saline): 139 % of control
T/C (T/C endpoint: median survival time, dose: 4.0 mg/kg/injection, schedule: Q14DX016 (ip), vehicle: saline): 142 % of control
survivor count (T/C endpoint: median survival time, dose: 8.0 mg/kg/injection, schedule: Q14DX016 (ip), vehicle: saline): 6 of 6
survivor count (T/C endpoint: median survival time, dose: 16.0 mg/kg/injection, schedule: Q14DX016 (ip), vehicle: saline): 6 of 6

NCC(=O)O
survivor count (T/C endpoint: median survival time, dose: 187.5 mg/kg/injection, schedule: Q04HX020 (ip), vehicle: saline): 10 of 10
survivor count (T/C endpoint: median survival time, dose: 375.0 mg/kg/injection, schedule: Q04HX020 (ip), vehicle: saline): 10 of 10
survivor count (T/C endpoint: median survival time, dose: 750.0 mg/kg/injection, schedule: Q04HX020 (ip), vehicle: saline): 10 of 10
survivor count (T/C endpoint: median survival time, dose: 1500.0 mg/kg/injection, schedule: Q04HX020 (ip), vehicle: saline): 10 of 10

O=CC(S)CO (configuration not stated)
survivor count (T/C endpoint: median survival time, dose: 200.0 mg/kg/injection, schedule: Q01DX010 (ip), vehicle: saline): 4 of 6
survivor count (T/C endpoint: median survival time, dose: 400.0 mg/kg/injection, schedule: Q01DX010 (ip), vehicle: saline): 0 of 6

COc1cc2c(c3c1c(=O)c1ccccc1n3C)C=CC(C)(C)O2
survivor count (T/C endpoint: median survival time, dose: 200.0 mg/kg/injection, schedule: Q01DX009 (ip), vehicle: Klucel (hydroxypropylcellulose) (HPC)): 0 of 10
survivor count (T/C endpoint: median survival time, dose: 400.0 mg/kg/injection, schedule: Q01DX009 (ip), vehicle: Klucel (hydroxypropylcellulose) (HPC)): 0 of 10

NC(=O)OCC(N)C(=O)O (configuration not stated)
survivor count (T/C endpoint: median survival time, dose: 200.0 mg/kg/injection, schedule: Q01DX005 (ip), vehicle: saline): 10 of 10

O=c1[nH]c(=O)n(C2CC(O)C(CO)O2)cc1F (configuration not stated)
T/C (T/C endpoint: survival time, mean or median, dose: 40.0 mg/kg/injection, schedule: Q01DX010 (ip), vehicle: saline): 127 % of control

CC[C@H]1CN2CCc3cc(OC)c(OC)cc3[C@@H]2C[C@@H]1C[C@H]1NCCc2cc(OC)c(OC)cc21
survivor count (T/C endpoint: median survival time, dose: 30.0 mg/kg/injection, schedule: Q04DX003 (ip), vehicle: water): 8 of 8

NC(=O)C(F)(F)C(N)C(=O)O (configuration not stated)
survivor count (T/C endpoint: median survival time, dose: 200.0 mg/kg/injection, schedule: Q01DX009 (ip), vehicle: saline): 3 of 3

NC(CC(=O)NO)C(=O)O (configuration not stated)
T/C [3]: 125 % of control

S=c1nc[nH]c2nc[nH]c12
survivor count (T/C endpoint: median survival time, dose: 135.0 mg/kg/injection, schedule: Q04DX002 (ip), vehicle: saline): 6 of 6

O=C1C=C(C2OC(CO)C(O)C2O)C(=O)N1 (configuration not stated)
survivor count (T/C endpoint: median survival time, dose: 8.0 mg/kg/injection, schedule: Q01DX005 (ip), vehicle: saline): 6 of 6
survivor count (T/C endpoint: median survival time, dose: 16.0 mg/kg/injection, schedule: Q01DX005 (ip), vehicle: saline): 2 of 6
survivor count (T/C endpoint: median survival time, dose: 16.0 mg/kg/injection, schedule: Q01DX010 (ip), vehicle: saline): 4 of 6
survivor count (T/C endpoint: median survival time, dose: 32.0 mg/kg/injection, schedule: Q01DX005 (ip), vehicle: saline): 0 of 6

CN(Cc1cnc2nc(N)nc(N)c2n1)c1ccc(C(=O)N[C@@H](CCC(=O)O)C(=O)O)cc1
survivor count (T/C endpoint: median survival time, dose: 3.0 mg/kg/injection, schedule: Q01DX005 (ip), vehicle: saline): 10 of 10
